1 substance from publication PMC5176366 can be followed below.

The chains behind the UniProt entries cited, without tags or fusion partners. Where a name states a change or a piece, a line headed by the entry shows the natural chain unless it says otherwise.
UniProt C4M8X7: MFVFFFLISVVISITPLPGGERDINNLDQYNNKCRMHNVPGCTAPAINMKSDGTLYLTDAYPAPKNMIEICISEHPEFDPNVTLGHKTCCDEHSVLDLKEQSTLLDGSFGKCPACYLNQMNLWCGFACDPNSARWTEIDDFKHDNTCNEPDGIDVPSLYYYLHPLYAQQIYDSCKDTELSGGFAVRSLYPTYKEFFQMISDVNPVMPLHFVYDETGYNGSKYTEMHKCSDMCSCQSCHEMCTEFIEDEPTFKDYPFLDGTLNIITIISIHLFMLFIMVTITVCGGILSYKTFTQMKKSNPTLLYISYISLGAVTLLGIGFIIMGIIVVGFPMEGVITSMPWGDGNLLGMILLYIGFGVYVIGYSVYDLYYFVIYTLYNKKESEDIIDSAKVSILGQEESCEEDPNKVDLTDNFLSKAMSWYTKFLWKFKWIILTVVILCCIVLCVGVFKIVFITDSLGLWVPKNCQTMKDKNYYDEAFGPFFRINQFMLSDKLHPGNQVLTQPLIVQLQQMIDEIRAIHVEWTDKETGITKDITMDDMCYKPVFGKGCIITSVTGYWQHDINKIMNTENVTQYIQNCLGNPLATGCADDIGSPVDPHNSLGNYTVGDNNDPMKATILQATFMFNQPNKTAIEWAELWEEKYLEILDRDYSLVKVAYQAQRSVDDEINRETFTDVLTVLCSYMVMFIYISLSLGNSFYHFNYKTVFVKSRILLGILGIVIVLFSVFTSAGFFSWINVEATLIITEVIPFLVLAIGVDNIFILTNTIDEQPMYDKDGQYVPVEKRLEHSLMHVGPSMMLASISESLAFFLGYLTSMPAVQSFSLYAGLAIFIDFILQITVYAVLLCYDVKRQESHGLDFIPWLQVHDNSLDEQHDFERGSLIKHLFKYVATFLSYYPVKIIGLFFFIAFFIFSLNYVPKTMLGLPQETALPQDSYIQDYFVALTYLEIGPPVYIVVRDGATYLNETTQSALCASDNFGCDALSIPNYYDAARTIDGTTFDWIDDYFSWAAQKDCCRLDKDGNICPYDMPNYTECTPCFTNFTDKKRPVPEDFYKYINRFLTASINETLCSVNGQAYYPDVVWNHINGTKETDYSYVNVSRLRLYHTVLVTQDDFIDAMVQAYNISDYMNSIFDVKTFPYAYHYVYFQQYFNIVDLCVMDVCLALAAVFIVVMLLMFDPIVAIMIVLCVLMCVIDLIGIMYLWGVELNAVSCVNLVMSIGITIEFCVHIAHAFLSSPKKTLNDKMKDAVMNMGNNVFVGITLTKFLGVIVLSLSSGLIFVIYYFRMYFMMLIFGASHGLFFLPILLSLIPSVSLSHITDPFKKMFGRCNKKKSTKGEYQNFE
UniProt Q9BLE8: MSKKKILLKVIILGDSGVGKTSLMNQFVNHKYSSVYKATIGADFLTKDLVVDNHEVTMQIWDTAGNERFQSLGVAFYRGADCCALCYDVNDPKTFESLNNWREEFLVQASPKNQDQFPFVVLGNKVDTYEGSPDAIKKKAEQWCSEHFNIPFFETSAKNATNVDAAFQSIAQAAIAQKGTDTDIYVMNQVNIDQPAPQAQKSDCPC

Results are given in words; binding and its absence hold for the method and conditions named. Binding seen in cells or lysates may run through a third protein. A result given as binding can be weak or reduced; the word gives no strength.

This assay concerns the target EhNPC1 (Entamoeba histolytica (endogenous in trophozoites)) (UniProt C4M8X7). In words: co-IP; trophozoites in basal condition or after 5+60 min of erythrophagocytosis, lysed in 10 mM Tris-HCl, 50 mM NaCl with protease inhibitors by freeze-thawing; immunoprecipitation with α-EhNPC1 or α-EhNPC2 antibody (preimmune serum as control) and protein G-agarose; western blot of the ….

Turning to EhRab7A (from UniProt Q9BLE8), the binding result is “binds”.
